Results taken from US20240201191A1, “CITRULLINATED PROTEINS AS BIOMARKERS AND THERAPY TARGETS FOR CANCER” (BOARD OF REGENTS, THE UNIVERSITY OF TEXAS SYSTEM, priority 2022, published 2024).
Entries after “also recorded” stand apart in the source; their conditions may differ.

Tested on: cancer cell surface proteins (TACSTD2, EGFR, ERBB2 and others)
Assay: Cancer cell surface protein citrullination sites by biotin labeling and mass spectrometry
Parameters: species or system human
Details: mass spectrometry
[1] = peptide of TACSTD2 (TROP2), trypsin digest
[2] = peptide of HSP90AA1 (HSP90), trypsin digest
[3] = peptide of ERBB2, trypsin digest
[4] = peptide of CD99, trypsin digest
[5] = peptide of EGFR, trypsin digest
[6] = peptide of CEACAM5, trypsin digest

Substance: SEQ ID NO: 146 (FVAAVHYEQPTIQIELR; MOD_RES (17)..(17) Citrullinated Arginine)
- Modification (citrullination site identified) [1]: R17(Cit.)

Substance: SEQ ID NO: 181 (SLTNDWEDHLAVKHFSVEGQLEFR; MOD_RES (24)..(24) Citrullinated Arginine)
- Modification (citrullination site identified) [2]: R24(Cit.)

Substance: SEQ ID NO: 160 (CEKCSKPCARVCYGLGMEHLR; MOD_RES (10)..(10) Citrullinated Arginine)
- Modification (citrullination site identified) [3]: R10(Cit.)

Substance: SEQ ID NO: 188 (KPSAGDDFDLGDAVVDGENDDPRPPNPPKPMPNPNPNHPSSSGSFSDADLADGVSGGEGK; MOD_RES (23)..(23) Citrullinated Arginine)
- Modification (citrullination site identified) [4]: R23(Cit.)

Substance: SEQ ID NO: 151 (TIQEVAGYVLIALNTVER; MOD_RES (18)..(18) Citrullinated Arginine)
- Modification (citrullination site identified) [5]: R18(Cit.)

Substance: SEQ ID NO: 144 (TLVRPSEHALVDNDGLYDPDCDPEGR; MOD_RES (4)..(4) Citrullinated Arginine; MOD_RES (26)..(26) Citrullinated Arginine)
- Modification (citrullination site identified) [1]: R4(Cit.);; also recorded: R26(Cit.)

Substance: SEQ ID NO: 158 (CWGESSEDCQSLTR; MOD_RES (14)..(14) Citrullinated Arginine)
- Modification (citrullination site identified) [3]: R14(Cit.)

Substance: SEQ ID NO: 156 (NYVVTDHGSCVRACGADSYEMEEDGVR; MOD_RES (27)..(27) Citrullinated Arginine)
- Modification (citrullination site identified) [5]: R27(Cit.)

Substance: SEQ ID NO: 149 (RLTAGLIAVIVVVVVALVAGMAVLVITNR; MOD_RES (1)..(1) Citrullinated Arginine)
- Modification (citrullination site identified) [1]: R1(Cit.)

Substance: SEQ ID NO: 171 (FAGVFHVEKNGRYSISR; MOD_RES (17)..(17) Citrullinated Arginine)
- Modification (citrullination site identified) (peptide of CD44 (CSPG8), trypsin digest): R17(Cit.)

Substance: SEQ ID NO: 148 (DIKGESLFQGRGGLDLR; MOD_RES (11)..(11) Citrullinated Arginine; MOD_RES (17)..(17) Citrullinated Arginine)
- Modification (citrullination site identified) [1]: R11(Cit.);; also recorded: R17(Cit.)

Substance: SEQ ID NO: 179 (VTVITKHNDDEQYAWESSAGGSFTVRTDTGEPMGRGTK; MOD_RES (26)..(26) Citrullinated Arginine; MOD_RES (35)..(35) Citrullinated Arginine)
- Modification (citrullination site identified) [2]: R26(Cit.);; also recorded: R35(Cit.)

Substance: SEQ ID NO: 189 (ENAEQGEVDMESHRNANAEPAVQR; MOD_RES (14)..(14) Citrullinated Arginine; MOD_RES (24)..(24) Citrullinated Arginine)
- Modification (citrullination site identified) [4]: R14(Cit.);; also recorded: R24(Cit.)

Substance: SEQ ID NO: 176 (NDTASYKCETQNPVSAR; MOD_RES (17)..(17) Citrullinated Arginine)
- Modification (citrullination site identified) [6]: R17(Cit.)

Substance: SEQ ID NO: 164 (GHCWGPGPTQCVNCSQFLR; MOD_RES (19)..(19) Citrullinated Arginine)
- Modification (citrullination site identified) [3]: R19(Cit.)

Substance: SEQ ID NO: 186 (AQALRDNSTMGYMAAK; MOD_RES (5)..(5) Citrullinated Arginine)
- Modification (citrullination site identified) [2]: R5(Cit.)

Substance: SEQ ID NO: 187 (SRAPVNWYQEK; MOD_RES (2)..(2) Citrullinated Arginine)
- Modification (citrullination site identified) (peptide of HSP90AA1 (HSP90) Isoform 2, trypsin digest): R2(Cit.)

Substance: SEQ ID NO: 175 (SDLVNEEATGQFR; MOD_RES (13)..(13) Citrullinated Arginine)
- Modification (citrullination site identified) [6]: R13(Cit.)

Substance: SEQ ID NO: 182 (RVFIMDNCEELIPEYLNFIR; MOD_RES (1)..(1) Citrullinated Arginine; MOD_RES (20)..(20) Citrullinated Arginine)
- Modification (citrullination site identified) [2]: R1(Cit.);; also recorded: R20(Cit.)
